# Hit rate of the full screen: of about 330,000 compounds, about 7,700 (2.3%) were called active. The inconclusive results got no clear call from the source; some entries with a clear call stand among them for comparison. Calls come from the whole dose curve; as a rule, active = well fitted inhibition curve with a large enough effect; inconclusive = small, poorly fitted or top-dose-only effect, or effect the other way; inactive = flat fitted curve, though single readings scatter. A potency beside an inconclusive call is a rough fit, not a confirmed value. Residues, ends and D or L forms follow the SMILES beside them. *: point of attachment. Boc = CC(C)(C)OC(=O)*; Bn = c1ccc(C*)cc1
# Assay: qHTS screen for small molecules that inhibit ELG1-dependent DNA repair in human embryonic kidney (HEK293T) cells expressing luciferase-tagged ELG1; note: nearly all actives have a fitted effect of over 55% in size
# Conditions: HEK293T ELG1-luciferase reporter, luminescence, 16 h, DNA damage induced by 5-fluorouridine; activity change, negative = inhibition: at 46.1 µM (top of the series)
# In short: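 DMSO vehicle served as the neutral condition. Each well held 2,000 cells given 5-fluorouridine plus compound; after 16 hr at 37 °C/5% CO2, ONE-Glo was added and luciferase measured 30 min later.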
# % is set by controls: 0 for no effect and ±100 for the full control effect; potency is the fitted concentration of half-maximal effect.
Structure (SMILES),"activity change, negative = inhibition",Potency
Fc1ccc(CNCc2ccc3c(c2)OCO3)cc1,inconclusive: 13.8% [activator],–
COc1ccc(-n2c(C)cc(/C=C3\C(=O)NN(c4ccccc4)C3=O)c2C)cc1,–,"inconclusive: 10.3 µM [activator, partial curve]"
Cc1ccccc1OC1C(=O)N(CC2CCCO2)C1c1ccc2c(c1)OCO2 (stereo not drawn),–,"inconclusive: 18.3 µM [inhibitor, single point]"
CC(C)(Oc1ccc(Cl)cc1)C(=O)NC1CCN(Cc2ccccc2)CC1,–,inactive
Cc1cccc(NC(=S)N(CCN(C)C)Cc2cccs2)c1,–,inactive
COc1ccc(CCNc2ncnc3c2nnn3Cc2ccccc2)cc1OC,–,"inconclusive: 29.1 µM [inhibitor, partial curve, poor fit]"
Cn1cccc1-c1cc(C(=O)N/N=C/c2ccc([N+](=O)[O-])cc2)[nH]n1,–,"inconclusive: 5.17 µM [inhibitor, single point]"
C=CCOc1c(Br)cc(/C=C2\SC(=Nc3ccccc3)NC2=O)cc1OC,–,"inconclusive: 20.6 µM [inhibitor, partial curve, poor fit]"
CCOc1ccc(Oc2nc(NCC(C)C)nc(OC)n2)nn1,–,"inconclusive: 20.6 µM [activator, partial curve, poor fit]"
O=C(/C=C/c1ccccc1)Nc1cccnc1,–,"inconclusive: 8.2 µM [activator, partial curve]"
CN(C)/C=C1\Cc2ccccc2C1=O,–,"inconclusive: 2.06 µM [activator, full curve]"
COc1ccccc1-n1cc(C(=O)NCC(=O)N2CCN(c3ccccc3)CC2)c2ccccc2c1=O,–,"inconclusive: 18.4 µM [activator, partial curve]"
Cc1[nH]c2ccccc2c1SCCNC(=O)c1ccc(Br)o1,–,"inconclusive: 29.1 µM [inhibitor, single point]"
O=C(c1ccccc1F)N1CCN(C2CCC(c3ccccc3)CC2)CC1 (stereo not drawn),–,"inconclusive: 18.3 µM [inhibitor, single point]"
Cc1ccc(-c2csc(NC(=O)CSc3nc(C)cs3)n2)cc1,–,"inconclusive: 8.2 µM [activator, partial curve]"
O=C(CSc1nc(-c2ccco2)cc(C(F)(F)F)n1)N1CCCc2ccccc21,–,"inconclusive: 16.4 µM [inhibitor, partial curve, poor fit]"
COc1ccc(Cl)cc1NC(=O)Nc1cnccn1,–,inactive
O=C(O)C1CCCCC1C(=O)Nc1ccc2c(c1)OCCO2 (stereo not drawn),–,"inconclusive: 14.6 µM [activator, partial curve]"
CCCCN1CC(=O)N2[C@H]3c4cc(Br)ccc4OC[C@@H]3[C@H](C(=O)OCC)[C@]2(C)C1=O,–,inactive
Cc1ccc(N2C(N)=C(C#N)C(c3cccs3)C3=C2CC(C)(C)CC3=O)cc1 (stereo not drawn),–,"inconclusive: 25.9 µM [inhibitor, partial curve]"
CCOc1ccccc1N1CCN(C(=O)/C=C/c2cccc([N+](=O)[O-])c2)CC1,–,inactive
CCN1CCCC(OC(=O)c2cc(-c3ccc(C)cc3)nc3ccccc23)C1 (stereo not drawn),–,inactive
CCC(C)NC(=O)c1cc2cc3ccc(OC)cc3nc2o1 (stereo not drawn),–,"inconclusive: 14.6 µM [activator, partial curve]"

Structure (SMILES),"activity change, negative = inhibition",Potency
COC(=O)c1ccc(NC(=O)CSc2nc3ncccc3[nH]2)cc1,–,inactive
O=[N+]([O-])c1ccc(CSc2nnc(Cc3ccccc3)n2-c2ccc(F)cc2)cc1,–,"inconclusive: 25.9 µM [inhibitor, partial curve, poor fit]"
Cc1ccccc1C(=O)N1CCC(C(=O)NC2CCCCC2)CC1,–,"inconclusive: 6.51 µM [inhibitor, single point]"
N#C/C(=C\c1ccc(N2CCOCC2)cc1)c1ccccc1,–,"inconclusive: 2.91 µM [activator, partial curve, poor fit]"
N#CC[C@H](c1ccccc1)N1CCN(Cc2ccccc2)CCC1=O,–,inactive
N#CC1(NC(=O)COc2ccc3ccc(=O)oc3c2)CCCCC1,–,inactive
CN(CC(=O)Nc1ccc(F)cc1)c1ccc(S(=O)(=O)N2CCCCC2)cc1[N+](=O)[O-],–,"inconclusive: 16.4 µM [inhibitor, partial curve]"
C#CCNC(=O)C1=C[C@H](c2cn(C(C)=O)c3ccccc23)C[C@H](OCc2ccc(CO)cc2)O1,–,"inconclusive: 29.1 µM [inhibitor, single point]"
COc1ccc(OC)c(S(=O)(=O)Nc2ccc3oc4c(c3c2)C(=O)CCC4)c1,–,"inconclusive: 29.1 µM [inhibitor, single point]"
O=C(COc1ccc(F)cc1F)Nc1cccnc1,–,"inconclusive: 20.6 µM [activator, partial curve]"
CC1=NN(Cc2ccccc2)C(=O)/C1=C/c1ccc(N(C)C)cc1,–,inactive
Cc1cc2c(NC(=O)Nc3ccccc3)cccc2nn1,–,"inconclusive: 16.4 µM [activator, partial curve, poor fit]"
CCCCc1nc2cc(C(=O)N(C)CCc3cn[nH]c3)ccc2o1,–,"inconclusive: 16.4 µM [activator, partial curve]"
Cc1cccc2sc(NS(C)(=O)=O)nc12,–,"inconclusive: 14.6 µM [activator, partial curve, poor fit]"
O=C(O)c1cc(O)c2c(c1)[C@H]([C@H]1c3cc(C(=O)O)cc(O)c3C(=O)c3c(O[C@@H]4O[C@H](CO)[C@@H](O)[C@H](O)[C@H]4O)cccc31)c1cccc(OC3O[C@H](CO)[C@@H](O)[C@H](O)[C@H]3O)c1C2=O (stereo partly drawn),–,"inconclusive: 17.8 µM [inhibitor, single point]"
O=C(N/N=C/c1cc([N+](=O)[O-])ccc1O)NC12CC3CC(CC(C3)C1)C2,–,"inconclusive: 13 µM [activator, partial curve]"
CC(C)NC(=O)N(C)C[C@H]1Oc2c(NC(=O)Nc3ccc4c(c3)OCO4)cccc2C(=O)N([C@H](C)CO)C[C@@H]1C,–,"inconclusive: 20.6 µM [inhibitor, partial curve]"
O=C(CSC(=S)N1CCCCC1)Nc1nc(-c2ccccc2)c(-c2ccccc2)o1,–,inactive
CS(=O)(=O)N(Cc1ccccc1Cl)c1ccc(C(=O)NCc2cccnc2)cc1,–,"inconclusive: 7.3 µM [inhibitor, partial curve]"
COCC(=O)N1CCCC(C(=O)c2ccc(Oc3ccccc3)cc2)C1 (stereo not drawn),–,inactive
CC(C)CC(NC(=O)C(Cc1ccc(OCc2ccccc2)cc1)NC(=O)OC(C)(C)C)C(N)=O (stereo not drawn) (Boc-Tyr(Bn)-Leu-NH2; configuration not given here),–,"inconclusive: 16.4 µM [inhibitor, partial curve]"
COc1cccc(NC(=O)CSc2nn3c(=O)c(C)nnc3s2)c1,–,inactive
O=C(Cc1ccc(S(=O)(=O)N2CCOCC2)s1)Nc1ccccc1N1CCOCC1,–,"inconclusive: 10.3 µM [inhibitor, partial curve, poor fit]"

Structure (SMILES),"activity change, negative = inhibition",Potency
CCOC(=O)Cc1csc(NC(=O)CSc2nnc(-c3ccc(C)cc3)o2)n1,–,inactive
CCCCn1c(N)c(N(CCOC)C(=O)c2ccc3c(c2)C(=O)N(c2ccccc2C)C3=O)c(=O)[nH]c1=O,–,"inconclusive: 13 µM [activator, single point]"
Cc1ccc2cc(C#N)c(N3CCN(C(=O)c4ccccc4)CC3)nc2c1,–,"inconclusive: 18.3 µM [inhibitor, partial curve]"
CN(CC(=O)Nc1ccccc1Cl)C(=O)C1CCN(C(=O)c2ccc(F)cc2)CC1,–,inactive
COc1ccc(C2NN=C(c3c[nH]c4ccccc34)C2O)cc1 (stereo not drawn),–,"inconclusive: 5.8 µM [activator, full curve, poor fit]"
O=C(CSc1nnc(-c2ccco2)n1Cc1ccco1)NCc1cccs1,–,inactive
CC(Oc1cc2oc(=O)c3c(c2cc1Cl)CCC3)C(=O)NCCN1CCOCC1 (stereo not drawn),–,inactive
CN(CC(=O)Nc1ccc(Cl)c(C(F)(F)F)c1)C(=O)C1CC(=O)N(CCc2ccccc2)C1 (stereo not drawn),–,"inconclusive: 20.6 µM [inhibitor, partial curve]"
CCOc1ccccc1NC(=O)CSc1nncc2ccccc12,–,inactive
CSc1ccccc1NC(=O)CN1CCN(c2ccccn2)CC1,–,inactive
CC(C)N(C(=S)NC1CC2CCC1C2)c1ccccc1 (stereo not drawn),–,inactive
O=C(COc1ccccc1Cl)Nc1nc(-c2ccncc2)cs1,–,"inconclusive: 23.1 µM [inhibitor, single point]"
CCn1c(C)nc2cc(C(=O)N/N=C/c3cccc(O)c3O)ccc21,–,"inconclusive: 29.1 µM [activator, single point]"
CCC1CCCCN1CCCNC(=O)Cn1ncn2nc(-c3ccc(OC)cc3)cc2c1=O (stereo not drawn),–,"inconclusive: 7.3 µM [activator, partial curve]"
COCCn1c(SCc2nc3ccccc3c(=O)[nH]2)nc2ccccc2c1=O,–,inactive
O=C(NCCN1CCN(c2cccc(Cl)c2)CC1)Nc1ccccc1,–,inactive
CCOC(=O)C(=O)N/N=C/c1ccc(F)cc1,–,inactive
Cc1c(C(=O)Nc2ccc(Cl)cn2)oc2ccccc12,–,"inconclusive: 5.8 µM [activator, partial curve]"
COc1cccc(C2=NOC(C(=O)Nc3cc(C)on3)C2)c1 (stereo not drawn),–,inactive
CC[C@]12c3[nH]c4ccc(OC)cc4c3CCN1C(=O)C(CC(=O)NC/C=C(\C)CCC=C(C)C)C[C@@H]2C(=O)N1CCN(C(=O)C2CC2)CC1 (stereo partly drawn),–,inactive
CCCCNC1C(CC)C(CCC)C(C#N)(C#N)C1(C#N)C#N (stereo not drawn),–,"inconclusive: 29.1 µM [inhibitor, single point]"
CCOC(=O)C1=C(COC(=O)c2ccc(Br)o2)NC(=O)NC1C (stereo not drawn),–,"inconclusive: 18.3 µM [activator, partial curve, poor fit]"

# Given as tab-separated lines: six of the compounds above
Structure (SMILES)	activity change, negative = inhibition	Potency
O=C(c1ccccc1F)N1CCN(C2CCC(c3ccccc3)CC2)CC1 (stereo not drawn)	–	inconclusive: 18.3 µM [inhibitor, single point]
Cc1ccccc1C(=O)N1CCC(C(=O)NC2CCCCC2)CC1	–	inconclusive: 6.51 µM [inhibitor, single point]
O=C(O)c1cc(O)c2c(c1)[C@H]([C@H]1c3cc(C(=O)O)cc(O)c3C(=O)c3c(O[C@@H]4O[C@H](CO)[C@@H](O)[C@H](O)[C@H]4O)cccc31)c1cccc(OC3O[C@H](CO)[C@@H](O)[C@H](O)[C@H]3O)c1C2=O (stereo partly drawn)	–	inconclusive: 17.8 µM [inhibitor, single point]
CC(C)CC(NC(=O)C(Cc1ccc(OCc2ccccc2)cc1)NC(=O)OC(C)(C)C)C(N)=O (stereo not drawn) (Boc-Tyr(Bn)-Leu-NH2; configuration not given here)	–	inconclusive: 16.4 µM [inhibitor, partial curve]
CCC1CCCCN1CCCNC(=O)Cn1ncn2nc(-c3ccc(OC)cc3)cc2c1=O (stereo not drawn)	–	inconclusive: 7.3 µM [activator, partial curve]
CCOC(=O)C1=C(COC(=O)c2ccc(Br)o2)NC(=O)NC1C (stereo not drawn)	–	inconclusive: 18.3 µM [activator, partial curve, poor fit]
